Counter-ions that a name gives are not always drawn. The list shows a part of the results. The calls rarely recur for the same compound in another form.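 Kinases were expressed as nanoluciferase fusions in K562 cells and luminescence was read every 4 h between 2 and 18 h as percent of control, DMSO set to 100% and a positive control to 0%. A time point counts as decreased when the signal drops significantly (2 sigma). The hit call is the authors' own, does not follow from the count of time points alone, and its rule is not shown.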
Biological target: CSNK1A1 (UniProt P48729)
Test: kinase-Nluc reporter destabilization hit call (1 = scored as downregulated) (binary); higher = compound decreases kinase abundance
Conditions: K562; 2-18 h

By UniProt entry, the sequences of proteins in these tests, tags left out. Where a name states a change or a piece, a line headed by the entry shows the natural chain unless it says otherwise.
UniProt P48729: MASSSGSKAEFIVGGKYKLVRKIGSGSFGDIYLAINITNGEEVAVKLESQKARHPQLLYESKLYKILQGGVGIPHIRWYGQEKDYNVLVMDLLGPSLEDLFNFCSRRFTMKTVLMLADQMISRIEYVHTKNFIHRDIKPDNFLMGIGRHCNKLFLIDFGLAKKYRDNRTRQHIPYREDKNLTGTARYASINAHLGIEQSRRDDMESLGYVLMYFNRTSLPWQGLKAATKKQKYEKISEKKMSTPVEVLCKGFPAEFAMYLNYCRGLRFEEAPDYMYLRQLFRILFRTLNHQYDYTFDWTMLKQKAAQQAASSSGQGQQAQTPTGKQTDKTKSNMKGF

kinase-Nluc reporter destabilization hit call, inactive:
N#Cc1ccc2[nH]c(O)c(-c3ccc(CN4CCOCC4)cn3)c2c1 (10 µM) 0, O=C1NCCc2[nH]c(-c3ccnc(-c4cnc5ccccc5c4)c3)cc21 (10 µM) 0, Oc1cc(O)cc(/C=C/c2ccc(O)c(O)c2)c1 [Piceatannol] (10 µM) 0, O=C(NOC[C@H](O)CO)c1ccc(F)c(F)c1Nc1ccc(I)cc1F (2.5 µM) 0, Cn1c(=O)n(-c2ccc(C(C)(C)C#N)cc2)c2c3cc(-c4cnc5ccccc5c4)ccc3ncc21 [Dactolisib (Tosylate)] (10 µM) 0, CCCCNc1ncc(-c2ccc(CN3CCOCC3)cn2)c(NC2CCC(O)CC2)n1 (configuration not stated) (10 µM) 0, O=C(Nc1cc(C(F)(F)F)ccc1N1CCN(Cc2ccccn2)CC1)c1ccc(-c2ccncc2)o1 (10 µM) 0, CC[C@H](CO)Nc1nc(NCc2ccccc2)c2ncn(C(C)C)c2n1 [Seliciclib] (10 µM) 0, COC(=O)c1ccc2c(C(=Nc3ccc(N(C)C(=O)CN4CCN(C)CC4)cc3)c3ccccc3)c(O)[nH]c2c1 [Nintedanib] (2.5 µM) 0, COc1cc(F)cc([C@@H](CO)NC(=O)[C@@H](C)N2Cc3ccc(-c4nc(NC5CCOCC5)ncc4Cl)cc3C2=O)c1 [ERK1/2 inhibitor 2] (10 µM) 0, CC(C)c1ccc2oc3nc(N)c(C(=O)O)cc3c(=O)c2c1 [Amlexanox] (10 µM) 0, CN(C)C[C@@H]1CCn2cc(c3ccccc32)C2=C(C(=O)NC2=O)c2cn(c3ccccc23)CCO1 [Ruboxistaurin (hydrochloride)] (10 µM) 0
